The assay concerns the target RAN-binding protein 9 (RANBP9) (mouse (endogenous in testis)) (UniProt P69566). Put plainly: affinity purification with mass spectrometry; mouse monoclonal anti-RANBP9 antibody (or IgG control) on protein G Dynabeads, incubated with pre-cleared P30 mouse testis lysate (TNIP buffer: 20 mM Tris-HCl pH 7.5, 200 mM NaCl, 2.5 mM MgCl2, 0.5% NP-40, 1% Triton X-100, 1 mM DTT) overnight at 4°C; four washes with NT2 buffer; bands unique to the RANBP9 IP excised for MS; three biological replicates.

The chains behind the UniProt entries cited, without tags or fusion partners.
UniProt P69566: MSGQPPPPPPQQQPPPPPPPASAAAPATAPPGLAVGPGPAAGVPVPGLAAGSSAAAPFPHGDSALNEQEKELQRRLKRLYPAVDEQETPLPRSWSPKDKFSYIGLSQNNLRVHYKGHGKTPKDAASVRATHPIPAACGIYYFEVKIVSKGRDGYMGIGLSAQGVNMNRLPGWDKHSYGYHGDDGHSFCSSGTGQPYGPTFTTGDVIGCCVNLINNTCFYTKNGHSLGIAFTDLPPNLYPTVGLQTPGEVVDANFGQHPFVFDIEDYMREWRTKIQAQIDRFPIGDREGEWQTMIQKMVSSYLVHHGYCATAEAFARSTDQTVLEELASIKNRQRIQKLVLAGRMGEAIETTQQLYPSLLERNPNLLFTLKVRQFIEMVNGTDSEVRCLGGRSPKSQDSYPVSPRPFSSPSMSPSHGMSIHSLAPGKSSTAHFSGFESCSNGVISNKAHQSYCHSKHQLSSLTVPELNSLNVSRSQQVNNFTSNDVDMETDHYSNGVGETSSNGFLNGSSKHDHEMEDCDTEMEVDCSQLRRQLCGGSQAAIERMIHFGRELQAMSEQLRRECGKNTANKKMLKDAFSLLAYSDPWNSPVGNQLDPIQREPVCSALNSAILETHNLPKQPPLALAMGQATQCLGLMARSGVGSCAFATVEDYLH
UniProt Q62029: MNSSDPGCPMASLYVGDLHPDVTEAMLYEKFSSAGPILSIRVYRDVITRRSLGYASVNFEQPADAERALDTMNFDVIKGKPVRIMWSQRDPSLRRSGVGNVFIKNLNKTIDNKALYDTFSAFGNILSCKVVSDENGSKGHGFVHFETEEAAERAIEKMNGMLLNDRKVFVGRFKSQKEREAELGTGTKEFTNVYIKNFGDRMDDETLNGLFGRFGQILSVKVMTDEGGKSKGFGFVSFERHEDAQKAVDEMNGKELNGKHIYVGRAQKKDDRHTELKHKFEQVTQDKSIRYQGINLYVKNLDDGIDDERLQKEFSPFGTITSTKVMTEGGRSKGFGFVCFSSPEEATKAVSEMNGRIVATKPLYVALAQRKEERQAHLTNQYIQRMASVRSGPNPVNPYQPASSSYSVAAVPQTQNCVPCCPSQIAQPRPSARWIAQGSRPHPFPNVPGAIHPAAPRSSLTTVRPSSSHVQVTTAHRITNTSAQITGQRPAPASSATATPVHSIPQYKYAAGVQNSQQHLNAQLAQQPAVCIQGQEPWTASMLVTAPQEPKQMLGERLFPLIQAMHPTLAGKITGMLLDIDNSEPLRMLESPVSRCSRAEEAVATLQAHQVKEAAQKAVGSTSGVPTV

Results are given in words; binding and its absence hold for the method and conditions named. In cells and extracts the contact can be indirect. A yes stands for co-enrichment or nearness to the bait. Other partners may have been found.

For the molecule “poly(A) binding protein PABPC2 (from UniProt Q62029 1-628)”, the binding result is on record as “binds”.

B1: splicing factor SF3B3 (protein, UniProt Q921M3 1-1217)
chain: MFLYNLTLQRATGISFAIHGNFSGTKQQEIVVSRGKILELLRPDPNTGKVHTLLTVEVFGVIRSLMAFRLTGGTKDYIVVGSDSGRIVILEYQPSKNMFEKIHQETFGKSGCRRIVPGQFLAVDPKGRAVMISAIEKQKLVYILNRDAAARLTISSPLEAHKANTLVYHVVGVDVGFENPMFACLEMDYEEADNDPTGEAAANTQQTLTFYELDLGLNHVVRKYSEPLEEHGNFLITVPGGSDGPSGVLICSENYITYKNFGDQPDIRCPIPRRRNDLDDPERGMIFVCSATHKTKSMFFFLAQTEQGDIFKITLETDEDMVTEIRLKYFDTVPVAAAMCVLKTGFLFVASEFGNHYLYQIAHLGDDDEEPEFSSAMPLEEGDTFFFQPRPLKNLVLVDELDSLSPILFCQIADLANEDTPQLYVACGRGPRSSLRVLRHGLEVSEMAVSELPGNPNAVWTVRRHIEDEFDAYIIVSFVNATLVLSIGETVEEVTDSGFLGTTPTLSCSLLGDDALVQVYPDGIRHIRADKRVNEWKTPGKKTIVKCAVNQRQVVIALTGGELVYFEMDPSGQLNEYTERKEMSADVVCMSLANVPPGEQRSRFLAVGLVDNTVRIISLDPSDCLQPLSMQALPAQPESLCIVEMGGTEKQDELGERGSIGFLYLNIGLQNGVLLRTVLDPVTGDLSDTRTRYLGSRPVKLFRVRMQGQEAVLAMSSRSWLSYSYQSRFHLTPLSYETLEFASGFASEQCPEGIVAISTNTLRILALEKLGAVFNQVAFPLQYTPRKFVIHPESNNLIIIETDHNAYTEATKAQRKQQMAEEMVEAAGEDERELAAEMAAAFLNENLPESIFGAPKAGNGQWASVIRVMNPIQGNTLDLVQLEQNEAAFSVAVCRFSNTGEDWYVLVGVAKDLILSPRSVAGGFVYTYKLVNNGEKLEFLHKTPVEEVPAAIAPFQGRVLIGVGKLLRVYDLGKKKLLRKCENKHIANYISGIQTIGHRVIVSDVQESFIWVRYKRNENQLIIFADDTYPRWVTTASLLDYDTVAGADKFGNICVVRLPPNTNDEVDEDPTGNKALWDRGLLNGASQKAEVIMNYHVGETVLSLQKTTLIPGGSESLVYTTLSGGIGILVPFTSHEDHDFFQHVEMHLRSEHPPLCGRDHLSFRSYYFPVKNVIDGDLCEQFNSMEPNKQKNVSEELDRTPPEVSKKLEDIRTRYAF
Turning to B1, the binding entry is on record as “binds”.
